These are yes or no findings as the source states them, for the method shown. Binding seen in cells or lysates may run through a third protein. Binding calls can cover weak binding; strength is not graded here. Where a sequence is shown, tags or fusion partners need not be part of it.
Biological target: T1, MYC-tagged full-length RIPK4 (human) (UniProt P57078)
T1 sequence: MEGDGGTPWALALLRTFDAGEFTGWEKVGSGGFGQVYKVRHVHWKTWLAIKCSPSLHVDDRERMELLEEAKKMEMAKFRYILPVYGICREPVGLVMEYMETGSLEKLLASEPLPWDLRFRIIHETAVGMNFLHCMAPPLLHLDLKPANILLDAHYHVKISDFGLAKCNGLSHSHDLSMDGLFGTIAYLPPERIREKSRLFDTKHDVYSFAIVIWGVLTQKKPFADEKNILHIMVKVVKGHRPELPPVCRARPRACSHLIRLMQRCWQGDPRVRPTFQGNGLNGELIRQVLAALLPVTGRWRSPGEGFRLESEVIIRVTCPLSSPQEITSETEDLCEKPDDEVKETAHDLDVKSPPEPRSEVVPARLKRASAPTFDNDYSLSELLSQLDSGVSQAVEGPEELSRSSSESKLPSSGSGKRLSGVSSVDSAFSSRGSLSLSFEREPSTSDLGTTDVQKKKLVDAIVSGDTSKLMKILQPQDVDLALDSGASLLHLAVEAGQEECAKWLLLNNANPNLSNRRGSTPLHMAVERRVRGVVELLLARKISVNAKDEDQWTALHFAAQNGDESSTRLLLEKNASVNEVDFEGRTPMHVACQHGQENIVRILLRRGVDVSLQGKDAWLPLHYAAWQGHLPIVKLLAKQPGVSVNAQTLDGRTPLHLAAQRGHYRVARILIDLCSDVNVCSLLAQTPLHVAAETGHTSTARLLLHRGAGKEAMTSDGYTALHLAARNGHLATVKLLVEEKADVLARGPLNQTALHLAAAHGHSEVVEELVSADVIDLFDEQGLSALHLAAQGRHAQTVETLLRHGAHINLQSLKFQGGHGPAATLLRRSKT
Assay: co-IP; FLAG-tagged A20 and MYC-tagged RIPK4 constructs expressed in RKO cells; immunoprecipitation with anti-MYC, blot anti-FLAG (Fig 3C also anti-FLAG, blot anti-MYC); lysis in 1% Triton X-100, 150mM NaCl, 10% Glycerol

Row | binding | Substance
1 | binds | FLAG-tagged A20 N-terminal domain (human) (domain or fragment)
2 | binds | FLAG-tagged A20 C-terminal domain (human) (domain or fragment)

— PMC5931457
